Data from US10197556B2, “Methods to detect non-genotoxic carcinogens using flatworms” (Universiteit Gent, priority 2015, dated 2019).
Some results were stated once for a whole list of compounds, not compound by compound.

Tested on: Macrostomum lignano
Settings: concentrations higher than the highest analyzed (Sox >1 mM, CP >100 μM, 4NQO >0.5 μM)
Experimental: Cultures of Macrostomum lignano (37) were grown in artificial seawater (ASW) enriched with f/2-medium (40) and fed ad libitum with the diatom Nitzschia curvilineata (PAE culture collection; UGent on the World Wide Web at pae.ugent.be/collection.htm), as described in references 41 and 43.
One week before starting chemical exposure, a six-well plate filled with 4 ml f/2 medium (Novolab NV) was inoculated with diatoms to achieve an ad libitum food source during exposure. Starvation of the worms leads to a decrease in stem cell proliferation (as shown in Nimeth et al (29)), which would interfere with stem cell proliferation, the endpoint of the assay. […]
After a preliminary test (CP as reference) on different exposure times ranging from two days to six weeks, the worms were exposed for a period of two weeks, after which they were subjected to phosphorylated histone H3 immunostaining (PH3) to quantify mitosis.
To quantify mitotic cells in whole mount specimens, the mitotic marker anti-PH3 was used. […] Slides were analyzed using a Leica 2500P microscope equipped with epifluorescence, a 40× objective and a DFC360FX CCD camera.
All somatic PH3-positive cells were counted manually using the Image J cell counter plugin (44) (FIG. 1). […]
Concentrations resulting in the death of 20% of the worms (three out of fifteen) during exposure were considered cytotoxic and were not analyzed.

## O=[N+]([O-])c1cc[n+]([O-])c2ccccc12 [4-Nitroquinoline-1-oxide]
  lethality of the worms: higher than 20%
